Source: patent US5760188A (Martin R&F Inc., priority 1996, dated 1998)
HELM strings list residues between dots; [ac] is acetyl, [am] amide, other brackets name non-standard units.

Assay: general procedure: Boc solid-phase peptide synthesis
Conditions: whole synthesis, analytical HPLC on u Bondapak C18 column, UV and fluorescence detection

## PEPTIDE1{[FTC].E.L.Y.E.N.K.P.R.R.P.Y.I.L}$$$$V2.0
  final HPLC purity: approximately 99%
